# Structures were worked out from names or drawings and are uncertain.
# Protein sequences, listed by entry. Tags and fused reporters are not part of them.
# UniProt P0DMS8, whole entry: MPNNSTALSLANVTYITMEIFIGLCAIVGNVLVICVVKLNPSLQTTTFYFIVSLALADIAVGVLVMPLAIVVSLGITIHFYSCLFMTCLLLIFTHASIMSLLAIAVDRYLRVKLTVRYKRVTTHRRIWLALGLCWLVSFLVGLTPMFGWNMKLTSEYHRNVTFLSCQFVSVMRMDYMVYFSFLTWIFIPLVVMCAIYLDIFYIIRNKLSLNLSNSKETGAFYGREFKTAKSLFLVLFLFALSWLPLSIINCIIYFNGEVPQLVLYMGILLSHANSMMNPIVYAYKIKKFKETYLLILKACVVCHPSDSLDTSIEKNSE
# Biological target: ADORA3 receptor (Homo sapiens, UniProt P0DMS8)
# Test: Agonistic effect on adenosine A3 receptor by FLIPR assay (calcium flux assay)
# Type: cell-based
# Conditions: agonist mode
smiles,measurement,value
CNC(=O)[C@H]1O[C@@H](n2cnc3c(NCc4cc(C)cc(C)c4)nc(-c4cncc(F)c4)nc32)[C@H](O)[C@@H]1O,EC50,19.4 nM

# — patent US12655174B2, “Adenosine A3 receptor agonists, preparation methods and uses thereof” (ZHEJIANG VIMGREEN PHARMACEUTICALS, LTD., priority 2020, dated 2026)
